{"source": "paper doi:10.1101/2023.12.13.571443", "biological_target": "T1, HopF2Pto-HA (Pseudomonas syringae pv. tomato DC3000) (UniProt Q88A90)", "T1 sequence": "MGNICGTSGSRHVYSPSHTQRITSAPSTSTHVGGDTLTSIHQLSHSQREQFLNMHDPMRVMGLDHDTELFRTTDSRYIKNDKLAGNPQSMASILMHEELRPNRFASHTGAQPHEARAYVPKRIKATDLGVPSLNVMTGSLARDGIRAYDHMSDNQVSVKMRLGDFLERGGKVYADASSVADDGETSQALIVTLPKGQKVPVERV", "test": "co-IP", "note": "No constants are given. Whether binding was seen depends on the method and setting. In cells and extracts the contact can be indirect. Binding can be weak; no strength is given. Where a sequence is shown, tags or fusion partners need not be part of it."}
{"substance": "QIAN SHOU KINASE1 (QSK1), endogenous (from UniProt Q9M8T0) (receptor)", "values": [{"measurement": "binding", "value": "binds"}]}
